Test results published in publication PMC6706415.
These are yes or no findings as the source states them, for the method shown. Some binding calls cover weakened binding; strength is not graded here.

Target: T1, β casein, P02666
T1 chain: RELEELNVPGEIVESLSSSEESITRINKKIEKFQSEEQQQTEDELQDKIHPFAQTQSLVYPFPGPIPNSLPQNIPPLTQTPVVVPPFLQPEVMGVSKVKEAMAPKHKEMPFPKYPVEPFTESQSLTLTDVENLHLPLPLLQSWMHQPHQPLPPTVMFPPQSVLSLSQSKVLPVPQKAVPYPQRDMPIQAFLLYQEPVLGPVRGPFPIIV
Assay: TEM + dynamic light scattering; βCas alone in aqueous medium; micelles; both purified
Settings: remark: other sources report otherwise

B1: β casein, P02666 16-224 (protein)
chain: RELEELNVPGEIVESLSSSEESITRINKKIEKFQSEEQQQTEDELQDKIHPFAQTQSLVYPFPGPIPNSLPQNIPPLTQTPVVVPPFLQPEVMGVSKVKEAMAPKHKEMPFPKYPVEPFTESQSLTLTDVENLHLPLPLLQSWMHQPHQPLPPTVMFPPQSVLSLSQSKVLPVPQKAVPYPQRDMPIQAFLLYQEPVLGPVRGPFPIIV
How did the binding turn out when B1 was run?
Its binding is “binds”.
